In all, about 390,000 compounds went through this assay and about 4,000 (1%) were called active. Inconclusive means that the source gave no clear call. Such entries were picked first, then a sample of the others. The call rests on the fitted dose curve; in most records, active means well fitted inhibition curve with a large enough effect; inconclusive means small, poorly fitted or top-dose-only effect, or another doubt; inactive means no such curve, though single readings can be large or run the other way. Potencies beside an inconclusive call are fits to weak or partial responses and may not hold up.
Each compound was assayed against DNA polymerase iota (Homo sapiens) (UniProt Q9UNA4) (assay: qHTS for Inhibitors of Polymerase Iota). Settings: Pol iota fluorescent replication assay, 10 min; series mostly up to 115 µM.
Summary of the method: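 Pol iota at 10 nM preincubated 15 min with compounds at room temperature; reaction started with fluorescent substrate, 50 nM final. Fluorescence read kinetically at 0 and 10 min; buffer-only wells as negative control.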
Potency means the concentration at half of the fitted maximal effect.

By UniProt entry, the sequences of proteins in these tests, tags left out. Where a name states a change or a piece, a line headed by the entry shows the natural chain unless it says otherwise.
UniProt Q9UNA4: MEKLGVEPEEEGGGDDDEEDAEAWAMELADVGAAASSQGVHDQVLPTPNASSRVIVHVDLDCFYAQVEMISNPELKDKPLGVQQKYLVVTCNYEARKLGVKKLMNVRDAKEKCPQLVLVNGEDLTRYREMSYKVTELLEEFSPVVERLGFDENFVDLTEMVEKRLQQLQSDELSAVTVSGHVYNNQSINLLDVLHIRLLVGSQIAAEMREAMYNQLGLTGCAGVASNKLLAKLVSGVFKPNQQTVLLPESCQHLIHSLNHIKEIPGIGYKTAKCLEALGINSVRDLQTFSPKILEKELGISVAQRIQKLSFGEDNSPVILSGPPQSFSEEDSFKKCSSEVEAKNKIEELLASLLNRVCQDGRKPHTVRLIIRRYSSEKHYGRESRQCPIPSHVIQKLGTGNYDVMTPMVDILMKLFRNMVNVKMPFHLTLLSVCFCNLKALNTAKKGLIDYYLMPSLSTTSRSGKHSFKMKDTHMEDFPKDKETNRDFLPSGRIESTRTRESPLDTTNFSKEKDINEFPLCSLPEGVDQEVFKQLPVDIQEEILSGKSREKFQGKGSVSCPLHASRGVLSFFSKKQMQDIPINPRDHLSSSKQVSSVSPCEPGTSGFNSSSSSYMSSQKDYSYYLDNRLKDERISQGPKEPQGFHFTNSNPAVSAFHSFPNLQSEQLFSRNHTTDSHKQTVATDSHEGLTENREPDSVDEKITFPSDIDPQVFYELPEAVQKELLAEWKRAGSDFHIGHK

Potency, inconclusive:
Cn1c(-c2ccc(F)cc2)cnc1NCc1ccc(F)cc1 3.16 µM [inhibitor, partial curve, poor fit]
CC1(C(=O)Nc2nc3ccccc3s2)CC1(Br)Br (stereo unspecified) 89.1 µM [inhibitor, partial curve, poor fit]
CCn1c(SCC(=O)NC2CCCc3ccccc32)nnc1-c1cccs1 (stereo unspecified) 56.2 µM [inhibitor, partial curve, poor fit]
Cc1ccc2nc(-c3ccncc3)cc(C(=O)Nc3ccc4c(c3)OCCO4)c2c1 22.4 µM [inhibitor, single point]
C/C(=N\OC(=O)c1ccc(F)cc1)c1ccc(F)c(F)c1 39.8 µM [inhibitor, partial curve, poor fit]
Cc1ccc(Cl)cc1N1CCN(S(=O)(=O)c2cc3[nH]c(=O)c(=O)[nH]c3cc2C)CC1 89.1 µM [inhibitor, partial curve, poor fit]
COC(=O)N1C(=O)[C@@](c2ccccc2)(C2CCCC2)N1C(=O)OC 39.8 µM [inhibitor, single point]
CCOC(=O)COc1ccc(/C=C2/C(=O)NN(c3ccc(F)cc3)C2=O)cc1OC 3.98 µM [inhibitor, full curve, poor fit]
COc1ccc(NS(=O)(=O)c2cc(C(=O)Nc3ccccc3C(=O)O)ccc2C)cc1 28.2 µM [inhibitor, partial curve, poor fit]
CC(C)C[C@H](NC(=O)c1nc[nH]c1C(=O)NCCCCCN)C(=O)OCc1ccccc1 17.8 µM [inhibitor, partial curve, poor fit]
Cc1ccccc1NC(=O)CSc1nc(N)c2c3c(sc2n1)CSC(C)(C)C3 112 µM [inhibitor, single point]
N#C/C(=C\c1ccc(F)c(Cl)c1)S(=O)(=O)c1ccccn1 14.1 µM [inhibitor, partial curve]
CCN(c1ccc(NC(=O)CCc2nc3sc4c(c3c(=O)[nH]2)CCCC4)cc1)C(C)C 17.8 µM [inhibitor, partial curve, poor fit]
S=c1nccc(-c2ccc3c(c2)CCO3)[nH]1 31.6 µM [inhibitor, single point]
c1ccc(-c2cc(NCCN3CCCCC3)c3ccccc3n2)cc1 44.7 µM [inhibitor, partial curve]
O=C1CC(c2ccco2)CC(O)=C1C=Nc1cc(Cl)cc(Cl)c1 (stereo unspecified) 12.6 µM [inhibitor, full curve, poor fit]
CC(C)c1c(C(=O)N/N=C/c2ccsc2)nnn1-c1nonc1N 8.91 µM [inhibitor, partial curve, poor fit]
COc1ccc(C)cc1S(=O)(=O)N(C)CC(=O)NCc1ccco1 14.1 µM [inhibitor, full curve]
Cc1ccc(NCCc2ccc(C)nc2)cc1 0.794 µM [inhibitor, partial curve, poor fit]
COc1ccc2c(C)cc(SCC(=O)N(C)C3CCS(=O)(=O)C3)nc2c1 (stereo unspecified) 79.4 µM [inhibitor, partial curve, poor fit]
CCOc1ccc(CNC(=O)CCC(=O)N2Cc3cccc(OC)c3Oc3ncccc32)cc1 79.4 µM [inhibitor, partial curve, poor fit]
C=CCn1c(CC(=O)Nc2cccc(OC)c2)nnc1SCC(=O)NC1CCCCC1 79.4 µM [inhibitor, single point]
CCOC(=O)C1=CN(Cc2cccc(F)c2)S(=O)(=O)N(CC)C1c1ccccc1 (stereo unspecified) 56.2 µM [inhibitor, single point]
Cc1cc2ncn(/N=C/c3ccc([N+](=O)[O-])o3)c2cc1C 89.1 µM [inhibitor, partial curve, poor fit]
CC(=O)N/C(=C/c1ccccc1)c1sc2ccccc2[n+]1CCCCI 56.2 µM [inhibitor, partial curve, poor fit]
Cc1c(O)cc2c(c1O)C(=O)CC(c1ccccc1)O2 (stereo unspecified) 89.1 µM [inhibitor, single point]
Cc1cn(CC(=O)NCC2CCCO2)c(=O)[nH]c1=O (stereo unspecified) 3.16 µM [inhibitor, partial curve, poor fit]
O=C(CCn1nnc2ccccc21)Nc1nnc(Cc2ccccc2)s1 50.1 µM [inhibitor, partial curve, poor fit]
CCCCn1nc2cc(C(=O)NCc3ccc(C(F)(F)F)cc3C(F)(F)F)ccc2c1OCC 39.8 µM [inhibitor, single point]
CC(CNc1ccccc1O)C(=O)O (stereo unspecified) 17.8 µM [inhibitor, full curve, poor fit]

Ordered by count of non-hydrogen atoms (smallest number first): some entries from above
Potency, inconclusive:
CC(CNc1ccccc1O)C(=O)O (stereo unspecified) 17.8 µM [inhibitor, full curve, poor fit]
Cc1ccc(NCCc2ccc(C)nc2)cc1 0.794 µM [inhibitor, partial curve, poor fit]
C=CCn1c(CC(=O)Nc2cccc(OC)c2)nnc1SCC(=O)NC1CCCCC1 79.4 µM [inhibitor, single point]

Next part.

Potency, inactive:
OCC[C@@H]1C[C@@H](O)[C@H](O)[C@]2(CCCCO2)O1
Cc1c(-c2ccc(/C=N/NC(=O)C(=O)Nc3ccccc3F)o2)cccc1[N+](=O)[O-]
Cc1nc(-c2ccc(C(=O)O)cc2)cs1
Cc1ccc(-c2nc3cc(Cl)ccc3o2)cc1NC(=O)COc1ccc(F)cc1
COc1ccc(CCNC(=O)COc2ccc(S(=O)(=O)NC3CCCCC3)cc2Cl)cc1
COc1ccc(N2CCc3c(C)nc4c(OC)cc(OC)cc4c32)c(OC)c1
Cc1ccc(N(C)C(=O)C2CCCN(c3ncnc4c3nc3n4CCCCC3)C2)cc1C (stereo unspecified)
CC(C)CNS(=O)(=O)c1ccc(CCC(=O)NCCC2=CCCCC2)cc1
CSc1cccc(NC(=O)c2ccc(NC3=NC4CS(=O)(=O)CC4S3)cc2)c1 (stereo unspecified)
Cc1cccc(C)c1NC(=O)CN(C)CC(=O)N(C)CC(=O)Nc1ccccc1Br
O=C(CSc1nc2c(cnn2-c2cccc(Cl)c2)c(=O)[nH]1)NCC1CCCO1 (stereo unspecified)

From PubChem BioAssay AID588590 (National Center for Advancing Translational Sciences (NCATS), 2011)
